Taken from: PubChem BioAssay AID1159579 (Peter MacCallum Cancer Centre, 2015)
The whole screen tested about 2,000 reagents; below is a part drawn at random. In the full data, 549 (27%) were called active. 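Some migration ratios are negative; siRNAs with too few cells are inactive whatever their migration ratio.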 Unmarked entries are inactive. Reagents against one gene are numbered here. Not given: the time to read-out.

Aim: 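Retest candidate lymphatic endothelial migration regulators using several independent siRNAs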 (follow-up of hits)
System: human dermal lymphatic endothelial cells
Reagent: single siRNA against human genes, 25 nM
Read-out: 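Scratch wound imaging measuring area filled by moving cells plus nuclei number, averaged over two wells and scaled to mock-transfected controls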
Direction: migration relative to mock: higher = more migration into the scratch; mean nuclei count: higher = more cells remaining
Call rule: 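a ratio of at most 0.6 or at least 1.3 marks altered migration and an active call; a mean nuclei count under 3300 forces an inactive call regardless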
Meaning of the calls: active = migration changed (impaired or accelerated); inactive = no migration change, or too few cells

ZNF703 (GeneID 80139) #1 — migration relative to mock: 0.62; migration and cell number class: no change in migration or cell number; mean nuclei count: 4476
ZNF703 (GeneID 80139) #2 — migration relative to mock: 1; migration and cell number class: no change in migration or cell number; mean nuclei count: 4730
ZNF703 (GeneID 80139) #3 — migration relative to mock: 1.01; migration and cell number class: no change in migration or cell number; mean nuclei count: 5130
ZNF703 (GeneID 80139) #4 — migration relative to mock: 1.05; migration and cell number class: no change in migration or cell number; mean nuclei count: 6106
PCDHGA8 (GeneID 9708) #1 — migration relative to mock: 1.15; migration and cell number class: no change in migration or cell number; mean nuclei count: 4568
PCDHGA8 (GeneID 9708) #2 — migration relative to mock: 1.05; migration and cell number class: no change in migration or cell number; mean nuclei count: 5530
PCDHGA8 (GeneID 9708) #3 — migration relative to mock: 0.92; migration and cell number class: no change in migration or cell number; mean nuclei count: 5398
PCDHGA8 (GeneID 9708) #4 — migration relative to mock: 0.79; migration and cell number class: no change in migration or cell number; mean nuclei count: 6120
CDKN1C (GeneID 1028) #1 — migration relative to mock: 0.77; migration and cell number class: no change in migration or cell number; mean nuclei count: 6790
CDKN1C (GeneID 1028) #2 — migration relative to mock: 0.72; migration and cell number class: no change in migration or cell number; mean nuclei count: 6005
CDKN1C (GeneID 1028) #3 — migration relative to mock: 0.94; migration and cell number class: no change in migration or cell number; mean nuclei count: 6618
CDKN1C (GeneID 1028) #4 — migration relative to mock: 0.91; migration and cell number class: no change in migration or cell number; mean nuclei count: 5805
FSIP2 (GeneID 401024) #1 — migration relative to mock: 0.92; migration and cell number class: no change in migration or cell number; mean nuclei count: 5698
FSIP2 (GeneID 401024) #2 — migration relative to mock: 0.97; migration and cell number class: no change in migration or cell number; mean nuclei count: 6251
FSIP2 (GeneID 401024) #3 — migration relative to mock: 1.09; migration and cell number class: no change in migration or cell number; mean nuclei count: 5920
FSIP2 (GeneID 401024) #4 — migration relative to mock: 0.86; migration and cell number class: no change in migration or cell number; mean nuclei count: 5794
POGLUT3 (GeneID 143888) #1 — migration relative to mock: 1.01; migration and cell number class: no change in migration or cell number; mean nuclei count: 5092
POGLUT3 (GeneID 143888) #2 — migration relative to mock: 0.8; migration and cell number class: no change in migration or cell number; mean nuclei count: 5459
POGLUT3 (GeneID 143888) #3 — migration relative to mock: 0.82; migration and cell number class: no change in migration or cell number; mean nuclei count: 6031
POGLUT3 (GeneID 143888) #4 — migration relative to mock: 0.94; migration and cell number class: no change in migration or cell number; mean nuclei count: 5559
PMVK (GeneID 10654) #1 — migration relative to mock: 0.64; migration and cell number class: no change in migration or cell number; mean nuclei count: 5104
PMVK (GeneID 10654) #2 — migration relative to mock: 0.55 (active); migration and cell number class: migration reduced; mean nuclei count: 5144
PMVK (GeneID 10654) #3 — migration relative to mock: 0.19 (active); migration and cell number class: migration reduced; mean nuclei count: 4209
PMVK (GeneID 10654) #4 — migration relative to mock: 1.09; migration and cell number class: no change in migration or cell number; mean nuclei count: 6396
LAMA4 (GeneID 3910) #1 — migration relative to mock: 1.17; migration and cell number class: no change in migration or cell number; mean nuclei count: 6095
LAMA4 (GeneID 3910) #2 — migration relative to mock: 0.5 (active); migration and cell number class: migration reduced; mean nuclei count: 5473
LAMA4 (GeneID 3910) #3 — migration relative to mock: -1.1; migration and cell number class: too few cells; migration not scored; mean nuclei count: 2309
LAMA4 (GeneID 3910) #4 — migration relative to mock: 0.75; migration and cell number class: no change in migration or cell number; mean nuclei count: 7020
PHACTR1 (GeneID 221692) #1 — migration relative to mock: 0.78; migration and cell number class: no change in migration or cell number; mean nuclei count: 6164
PHACTR1 (GeneID 221692) #2 — migration relative to mock: 0.95; migration and cell number class: no change in migration or cell number; mean nuclei count: 5786
PHACTR1 (GeneID 221692) #3 — migration relative to mock: 0.36 (active); migration and cell number class: migration reduced; mean nuclei count: 3830
PHACTR1 (GeneID 221692) #4 — migration relative to mock: 0.78; migration and cell number class: no change in migration or cell number; mean nuclei count: 5031
ANKRD13C (GeneID 81573) #1 — migration relative to mock: 0.96; migration and cell number class: no change in migration or cell number; mean nuclei count: 6008
ANKRD13C (GeneID 81573) #2 — migration relative to mock: 0.3 (active); migration and cell number class: migration reduced; mean nuclei count: 4370
ANKRD13C (GeneID 81573) #3 — migration relative to mock: 1.06; migration and cell number class: no change in migration or cell number; mean nuclei count: 5900
ANKRD13C (GeneID 81573) #4 — migration relative to mock: 0.86; migration and cell number class: no change in migration or cell number; mean nuclei count: 6798

Quoted from the entries so far (3 entries):
PHACTR1 (GeneID 221692) #2 — migration relative to mock: 0.95; migration and cell number class: no change in migration or cell number; mean nuclei count: 5786
PHACTR1 (GeneID 221692) #3 — migration relative to mock: 0.36 (active); migration and cell number class: migration reduced; mean nuclei count: 3830
PHACTR1 (GeneID 221692) #4 — migration relative to mock: 0.78; migration and cell number class: no change in migration or cell number; mean nuclei count: 5031
